Experimental data: PubChem BioAssay AID504793 (Drosophila RNAi Screening Center, 2011)
Purpose: 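Genes required for cells to halt at G2/M after double-strand DNA breaks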 (primary screen). Cell system: Drosophila S2R+ cells. Reagent: long dsRNA against Drosophila genes, about 0.25 µg dsRNA per well. Time to read-out: 4 days of dsRNA, then 4 hours of drug before read-out. Conditions: doxorubicin 0.5 µM for 4 hours to cause double-strand breaks, in cells also given a low, harmless dose of dsRNA against nbs to sensitise the assay. Measurement: 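Per-well count of mitotic cells stained for phospho-histone H3 after doxorubicin exposure, used as mitotic index; counts are raw and not normalised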. Scale: mitotic cells: higher = more cells in mitosis, weaker G2 arrest. Hit rule: 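Genes are called active only when high mitotic counts were reproduced with independent dsRNAs and mitosis was checked for delay without damage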. Meaning of the calls: active = confirmed in follow-up tests; inactive = not confirmed.
The deposit covers about 23,000 reagents; below is a random part of those with a known target gene and a result. In the full data, 62 (0.27%) got an active call. 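Calls come from follow-up tests whose scores are not deposited, so confirmed genes may have low counts here; counts are not normalised per plate.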 Raw values vary from plate to plate and are shown uncorrected. The numbers tell different reagents against one gene apart. Reagent sequences are not shown.

target	reagent	mitotic cells, replicate 1	activity call
CG5916	1	5	inactive
Gyc32E (Guanylyl cyclase at 32E)	1	10	inactive
Gyc32E (Guanylyl cyclase at 32E)	2	13	inactive
JhI-26 (Juvenile hormone-inducible protein 26)	1	2	inactive
JhI-26 (Juvenile hormone-inducible protein 26)	2	5	inactive
asl (asterless)	1	9	inactive
Cad96Cb (Cadherin 96Cb)	1	10	inactive
Cad96Cb (Cadherin 96Cb)	2	13	inactive
Cad96Cb (Cadherin 96Cb)	3		inactive
Crtc (CREB-regulated transcription coactivator)	1	5	inactive
Crtc (CREB-regulated transcription coactivator)	2	7	inactive
CG12236	1	9	inactive
CG12236	2	7	inactive
CG34199	1	8	inactive
CG34199	2	3	inactive
CG8067	1	2	inactive
CG14024	1	4	inactive
CG14024	2	3	inactive
BomS4 (Bomanin Short 4)	1	8	inactive
CG7099	1	5	inactive
CG7099	2	5	inactive
Grik	1	8	inactive
Grik	2	7	inactive
Grik	3	6	inactive
Mur82C (Mucin related 82C)	1	13	inactive
Mur82C (Mucin related 82C)	2	12	inactive
Mur82C (Mucin related 82C)	3	3	inactive
Spn42Dd (Serpin 42Dd)	1	8	inactive
Spn42Dd (Serpin 42Dd)	2		inactive
Xrp1	1	10	inactive
Xrp1	2	4	inactive
yellow-f2	1	5	inactive
yellow-f2	2	4	inactive
Hml (Hemolectin)	1	6	inactive
pix (pixie)	1	6	inactive
bic (bicaudal)	1	9	inactive
bic (bicaudal)	2	1	inactive
CG1789	1	5	inactive
CG1789	2	5	inactive
Bro	1	7	inactive
Arpc3A (Actin-related protein 2/3 complex, subunit 3A)	1	7	inactive
Arpc3A (Actin-related protein 2/3 complex, subunit 3A)	2	7	inactive
GluRIID (Glutamate receptor IID)	1	6	inactive
GluRIID (Glutamate receptor IID)	2	7	inactive
CG14185	1	8	inactive
CG32073	1	6	inactive
CG32073	2		inactive
CG10062	1	4	inactive
CG10062	2	7	inactive
CG10062	3	10	inactive
CG31636	1	11	inactive
CG31636	2	10	inactive
CG14567	1	10	inactive
ova (ovaries absent)	1	7	inactive
Delta	1	8	inactive
Delta	2	4	inactive
Abl (Abl tyrosine kinase)	1	7	inactive
Abl (Abl tyrosine kinase)	2	7	inactive
raw	1	1	inactive
raw	2	1	inactive
CG32686	1	13	inactive
CG32686	2	5	inactive
CG11529	1	6	inactive
CG5065	1	9	inactive
t-Grip91 (testis-specific gamma-tubulin ring protein 91)	1	11	inactive
Tmtc3 (Transmembrane O-mannosyltransferase targeting cadherins 3)	1	8	inactive
CG9406	1	12	inactive
Fit1 (Fermitin 1)	1	4	inactive
Fit1 (Fermitin 1)	2	1	inactive
CG34429	1	2	inactive
Samtor (S-adenosylmethionine sensor upstream of TORC1)	1	5	inactive
Samtor (S-adenosylmethionine sensor upstream of TORC1)	2	9	inactive
CG11920	1	8	inactive
CG15617	1	6	inactive
CG15617	2	9	inactive
Cyp303a1 (Cytochrome P450 303a1)	1	3	inactive
cyst (cysts)	1	10	inactive
Bili (Band4.1 inhibitor LRP interactor)	1	8	inactive
CG17239	1	5	inactive
obst-B (obstructor-B)	1	10	inactive
Ets98B (Ets at 98B)	1	9	inactive
Ets98B (Ets at 98B)	2	5	inactive
Uch-L5 (Ubiquitin carboxy-terminal hydrolase L5)	1	6	inactive
Uch-L5 (Ubiquitin carboxy-terminal hydrolase L5)	2	1	inactive
CG10376	1	3	inactive
CG10376	2	6	inactive
alphaTub85E (alpha-Tubulin at 85E)	1	110	inactive
alphaTub85E (alpha-Tubulin at 85E)	2	84	inactive
raptor	1	12	inactive
Mvl (Malvolio)	1	4	inactive
Ski6	1		inactive
Nprl2 (Nitrogen permease regulator-like 2)	1	2	inactive
Sptr (Sepiapterin reductase)	1	6	inactive
wdn (wings down)	1	5	inactive
wdn (wings down)	2	2	inactive
SdhD (Succinate dehydrogenase, subunit D)	1	11	inactive
Dic1	1	6	inactive
red (red Malpighian tubules)	1	6	inactive
Cln3	1	5	inactive
Cln3	2	16	inactive
Zip42C.1 (Zinc/iron regulated transporter-related protein 42C.1)	1	8	inactive
CG4360	1	5	inactive
CG4360	2	6	inactive
CG10920	1	27	inactive
Akr1B (Aldo-keto reductase 1B)	1	4	inactive
CG13445	1	7	inactive
CG13445	2	5	inactive
CG1850	1	8	inactive
Rab14	1	6	inactive
Rab14	2	5	inactive
CG13917	1	12	inactive
CG13917	2	9	inactive
CG14300	1	12	inactive
CHKov1 (CHK domain ov1)	1	4	inactive
CHKov1 (CHK domain ov1)	2	3	inactive
CHKov1 (CHK domain ov1)	3	7	inactive
CHKov1 (CHK domain ov1)	4	8	inactive
CHKov1 (CHK domain ov1)	5	6	inactive
qkr58E-3 (quaking related 58E-3)	1	2	inactive
jagn (jagunal)	1	6	inactive
CG13024	1	5	inactive
CG13024	2	2	inactive
l(3)80Fg (lethal (3) 80Fg)	1	16	inactive
l(3)80Fg (lethal (3) 80Fg)	2	9	inactive
CG17050 (retired record)	1	8	inactive
SMC1 (Structural maintenance of chromosomes 1)	1	14	inactive
Abca3 (ATP binding cassette subfamily A member 3)	1	7	inactive
Hpd (4-hydroxyphenylpyruvate dioxygenase)	1	6	inactive
Hpd (4-hydroxyphenylpyruvate dioxygenase)	2	6	inactive
Csk (C-terminal Src kinase)	1	14	inactive
Csk (C-terminal Src kinase)	2	2	inactive
Csk (C-terminal Src kinase)	3	8	inactive
achi (achintya)	1	8	inactive
achi (achintya)	2	12	inactive
Adck5 (aarF domain containing kinase 5)	1	6	inactive
Sbds (SBDS ribosome maturation factor)	1	7	inactive
thoc7	1	8	inactive
thoc7	2	14	inactive
knon (knotted onions)	1	2	inactive
CG9570	1	4	inactive

7 of these entries, reformatted:
target,reagent,"mitotic cells, replicate 1",activity call
Hpd (4-hydroxyphenylpyruvate dioxygenase),1,6,inactive
Hpd (4-hydroxyphenylpyruvate dioxygenase),2,6,inactive
Csk (C-terminal Src kinase),1,14,inactive
Csk (C-terminal Src kinase),2,2,inactive
Csk (C-terminal Src kinase),3,8,inactive
achi (achintya),1,8,inactive
achi (achintya),2,12,inactive
